Results from the supplement of paper PMC12819154, “High-throughput peptide-centric local stability assay extends protein–ligand identification to membrane proteins, tissues and bacteria” (Nature Structural & Molecular Biology, 2025).
Some of the results follow. Most values lie at the level of the controls, where differences are scatter.

Chains of the proteins cited; added tags and fusions are not shown. Lines headed by an entry give the natural chain unless they say otherwise; changes in a name come on top.
UniProt Q96QE5: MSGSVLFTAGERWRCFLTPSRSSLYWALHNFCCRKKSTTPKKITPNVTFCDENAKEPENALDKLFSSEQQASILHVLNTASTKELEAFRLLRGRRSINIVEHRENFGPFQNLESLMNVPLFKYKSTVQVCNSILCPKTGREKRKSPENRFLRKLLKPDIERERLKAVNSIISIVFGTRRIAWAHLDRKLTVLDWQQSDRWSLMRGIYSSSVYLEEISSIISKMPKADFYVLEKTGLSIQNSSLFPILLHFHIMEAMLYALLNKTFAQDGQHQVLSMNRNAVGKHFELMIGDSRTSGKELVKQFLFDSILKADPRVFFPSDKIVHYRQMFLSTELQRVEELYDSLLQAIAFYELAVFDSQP
UniProt Q96QR8: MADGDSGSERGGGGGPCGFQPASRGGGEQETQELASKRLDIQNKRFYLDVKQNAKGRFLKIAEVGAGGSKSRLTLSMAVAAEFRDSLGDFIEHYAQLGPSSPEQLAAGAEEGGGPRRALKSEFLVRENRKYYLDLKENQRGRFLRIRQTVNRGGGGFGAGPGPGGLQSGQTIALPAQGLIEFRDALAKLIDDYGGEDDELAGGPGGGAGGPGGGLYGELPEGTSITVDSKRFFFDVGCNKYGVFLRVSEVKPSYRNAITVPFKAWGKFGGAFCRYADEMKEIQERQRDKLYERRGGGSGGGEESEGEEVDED
UniProt Q96GX9: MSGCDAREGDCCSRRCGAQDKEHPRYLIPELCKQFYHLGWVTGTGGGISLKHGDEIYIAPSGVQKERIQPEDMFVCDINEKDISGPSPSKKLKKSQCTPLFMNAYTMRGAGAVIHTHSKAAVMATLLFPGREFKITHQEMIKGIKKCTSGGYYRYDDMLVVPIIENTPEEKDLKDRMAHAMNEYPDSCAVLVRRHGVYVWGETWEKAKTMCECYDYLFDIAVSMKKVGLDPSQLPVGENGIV
UniProt Q96NT0: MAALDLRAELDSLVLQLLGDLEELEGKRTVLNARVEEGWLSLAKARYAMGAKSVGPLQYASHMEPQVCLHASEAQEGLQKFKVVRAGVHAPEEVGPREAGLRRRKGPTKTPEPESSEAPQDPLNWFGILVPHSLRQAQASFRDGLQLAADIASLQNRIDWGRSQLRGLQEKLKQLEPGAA
UniProt Q96LZ2: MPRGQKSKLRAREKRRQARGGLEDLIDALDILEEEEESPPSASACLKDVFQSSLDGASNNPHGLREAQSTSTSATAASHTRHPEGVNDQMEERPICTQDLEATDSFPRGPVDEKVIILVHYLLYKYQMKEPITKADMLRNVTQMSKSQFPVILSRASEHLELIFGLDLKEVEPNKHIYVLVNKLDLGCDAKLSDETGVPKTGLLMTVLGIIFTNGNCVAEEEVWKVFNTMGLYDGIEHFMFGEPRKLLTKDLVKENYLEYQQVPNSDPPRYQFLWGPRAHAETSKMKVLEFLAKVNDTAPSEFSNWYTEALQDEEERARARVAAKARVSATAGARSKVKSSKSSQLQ
UniProt Q96LW4: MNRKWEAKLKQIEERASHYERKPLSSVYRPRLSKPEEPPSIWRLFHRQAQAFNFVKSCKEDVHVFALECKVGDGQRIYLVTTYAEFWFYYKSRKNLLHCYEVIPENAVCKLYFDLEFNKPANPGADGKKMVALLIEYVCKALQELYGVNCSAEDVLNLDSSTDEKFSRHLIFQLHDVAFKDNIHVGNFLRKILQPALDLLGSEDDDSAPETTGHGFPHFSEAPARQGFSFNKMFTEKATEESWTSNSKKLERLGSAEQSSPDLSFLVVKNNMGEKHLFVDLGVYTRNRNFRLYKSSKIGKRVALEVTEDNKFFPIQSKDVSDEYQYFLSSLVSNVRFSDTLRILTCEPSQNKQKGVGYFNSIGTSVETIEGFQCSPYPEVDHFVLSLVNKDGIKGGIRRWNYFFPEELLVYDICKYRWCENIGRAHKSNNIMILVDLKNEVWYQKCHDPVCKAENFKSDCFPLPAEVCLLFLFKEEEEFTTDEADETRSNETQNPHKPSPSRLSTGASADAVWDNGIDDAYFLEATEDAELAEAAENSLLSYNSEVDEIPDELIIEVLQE
UniProt Q96GY3: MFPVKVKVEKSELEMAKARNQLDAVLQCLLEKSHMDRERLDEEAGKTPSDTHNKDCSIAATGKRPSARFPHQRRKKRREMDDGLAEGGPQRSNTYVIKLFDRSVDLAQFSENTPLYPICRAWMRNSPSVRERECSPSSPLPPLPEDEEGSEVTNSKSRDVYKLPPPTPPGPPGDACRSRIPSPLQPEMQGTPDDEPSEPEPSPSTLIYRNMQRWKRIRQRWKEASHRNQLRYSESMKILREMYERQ
UniProt Q96G25: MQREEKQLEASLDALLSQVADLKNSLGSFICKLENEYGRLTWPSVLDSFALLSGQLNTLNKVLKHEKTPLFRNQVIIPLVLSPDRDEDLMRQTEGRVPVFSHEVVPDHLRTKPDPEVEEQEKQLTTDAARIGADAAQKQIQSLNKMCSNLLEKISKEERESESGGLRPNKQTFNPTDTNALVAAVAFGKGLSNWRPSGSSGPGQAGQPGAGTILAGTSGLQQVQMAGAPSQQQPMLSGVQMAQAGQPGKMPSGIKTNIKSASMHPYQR
UniProt Q96K30: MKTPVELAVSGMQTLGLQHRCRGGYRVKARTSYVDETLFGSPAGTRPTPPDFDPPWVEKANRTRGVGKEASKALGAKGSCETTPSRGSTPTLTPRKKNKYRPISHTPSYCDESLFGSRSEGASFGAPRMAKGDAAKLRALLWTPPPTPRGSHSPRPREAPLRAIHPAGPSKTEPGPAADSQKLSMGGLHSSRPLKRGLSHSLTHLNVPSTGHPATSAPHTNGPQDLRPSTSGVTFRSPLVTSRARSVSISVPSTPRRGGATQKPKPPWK
UniProt Q96N64: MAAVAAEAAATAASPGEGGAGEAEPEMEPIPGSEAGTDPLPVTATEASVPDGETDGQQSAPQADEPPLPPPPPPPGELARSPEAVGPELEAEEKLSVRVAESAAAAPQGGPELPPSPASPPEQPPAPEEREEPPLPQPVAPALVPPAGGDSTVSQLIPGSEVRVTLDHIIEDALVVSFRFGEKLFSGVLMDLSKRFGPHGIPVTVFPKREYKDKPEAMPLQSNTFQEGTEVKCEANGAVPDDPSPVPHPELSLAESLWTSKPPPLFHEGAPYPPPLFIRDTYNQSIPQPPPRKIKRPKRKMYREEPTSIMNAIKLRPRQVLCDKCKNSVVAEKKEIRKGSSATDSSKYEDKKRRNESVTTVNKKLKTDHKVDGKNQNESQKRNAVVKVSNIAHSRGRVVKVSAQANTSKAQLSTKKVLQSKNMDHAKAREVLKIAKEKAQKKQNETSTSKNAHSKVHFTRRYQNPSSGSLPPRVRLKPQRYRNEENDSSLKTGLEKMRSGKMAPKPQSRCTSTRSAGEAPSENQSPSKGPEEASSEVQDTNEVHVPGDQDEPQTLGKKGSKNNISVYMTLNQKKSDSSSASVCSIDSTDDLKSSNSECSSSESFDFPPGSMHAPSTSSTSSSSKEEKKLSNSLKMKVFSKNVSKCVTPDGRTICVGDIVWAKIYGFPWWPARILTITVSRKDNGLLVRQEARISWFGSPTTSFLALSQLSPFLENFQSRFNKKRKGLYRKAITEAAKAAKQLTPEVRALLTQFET
UniProt Q96FQ7: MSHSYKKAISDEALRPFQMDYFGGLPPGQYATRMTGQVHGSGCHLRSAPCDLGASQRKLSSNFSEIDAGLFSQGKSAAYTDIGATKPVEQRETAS
UniProt Q96GE5: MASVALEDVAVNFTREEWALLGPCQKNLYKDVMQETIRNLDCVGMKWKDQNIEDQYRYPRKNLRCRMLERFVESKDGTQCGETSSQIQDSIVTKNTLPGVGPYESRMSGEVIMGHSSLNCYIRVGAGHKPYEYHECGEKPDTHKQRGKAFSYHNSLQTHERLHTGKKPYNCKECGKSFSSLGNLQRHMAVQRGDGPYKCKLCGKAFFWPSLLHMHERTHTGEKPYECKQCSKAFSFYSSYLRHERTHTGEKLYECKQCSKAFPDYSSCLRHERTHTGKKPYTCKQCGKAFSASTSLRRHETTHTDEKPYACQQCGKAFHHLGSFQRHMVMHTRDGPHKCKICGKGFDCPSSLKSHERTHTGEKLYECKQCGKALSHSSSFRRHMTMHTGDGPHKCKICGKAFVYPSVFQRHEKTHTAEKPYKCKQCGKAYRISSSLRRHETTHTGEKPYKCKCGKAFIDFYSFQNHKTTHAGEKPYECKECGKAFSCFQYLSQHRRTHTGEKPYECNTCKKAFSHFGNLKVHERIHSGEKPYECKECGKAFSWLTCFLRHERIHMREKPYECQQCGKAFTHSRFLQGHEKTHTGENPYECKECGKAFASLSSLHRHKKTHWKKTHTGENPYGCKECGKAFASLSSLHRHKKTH
UniProt Q96MH2: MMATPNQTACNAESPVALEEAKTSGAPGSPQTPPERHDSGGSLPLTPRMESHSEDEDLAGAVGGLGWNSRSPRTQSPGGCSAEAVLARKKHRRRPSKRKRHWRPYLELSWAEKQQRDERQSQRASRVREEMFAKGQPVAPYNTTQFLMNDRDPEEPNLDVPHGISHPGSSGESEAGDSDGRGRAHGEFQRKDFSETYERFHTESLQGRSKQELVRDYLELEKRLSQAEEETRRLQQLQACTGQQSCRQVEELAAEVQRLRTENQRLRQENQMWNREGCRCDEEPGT
UniProt Q96I24: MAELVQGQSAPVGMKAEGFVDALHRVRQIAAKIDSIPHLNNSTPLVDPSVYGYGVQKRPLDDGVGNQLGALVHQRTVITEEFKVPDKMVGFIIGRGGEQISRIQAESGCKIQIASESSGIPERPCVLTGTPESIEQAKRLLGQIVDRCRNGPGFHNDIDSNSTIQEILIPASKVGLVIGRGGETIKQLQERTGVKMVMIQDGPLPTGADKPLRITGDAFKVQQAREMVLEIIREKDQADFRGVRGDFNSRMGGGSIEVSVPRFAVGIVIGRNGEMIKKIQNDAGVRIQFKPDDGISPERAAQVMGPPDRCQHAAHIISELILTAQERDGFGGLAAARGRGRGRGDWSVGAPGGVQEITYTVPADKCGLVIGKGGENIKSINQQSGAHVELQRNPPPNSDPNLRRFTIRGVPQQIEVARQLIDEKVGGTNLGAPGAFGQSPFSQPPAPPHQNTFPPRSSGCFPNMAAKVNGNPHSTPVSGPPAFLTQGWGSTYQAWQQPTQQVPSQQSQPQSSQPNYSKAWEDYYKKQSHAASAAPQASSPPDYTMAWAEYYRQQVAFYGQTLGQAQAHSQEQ
UniProt Q96FF7: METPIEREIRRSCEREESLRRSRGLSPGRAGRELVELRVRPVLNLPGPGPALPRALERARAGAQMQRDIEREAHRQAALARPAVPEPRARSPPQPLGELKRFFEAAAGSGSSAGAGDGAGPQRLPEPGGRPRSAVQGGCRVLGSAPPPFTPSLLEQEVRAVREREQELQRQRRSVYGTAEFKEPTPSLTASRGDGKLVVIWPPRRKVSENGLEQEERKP
UniProt Q96HR9: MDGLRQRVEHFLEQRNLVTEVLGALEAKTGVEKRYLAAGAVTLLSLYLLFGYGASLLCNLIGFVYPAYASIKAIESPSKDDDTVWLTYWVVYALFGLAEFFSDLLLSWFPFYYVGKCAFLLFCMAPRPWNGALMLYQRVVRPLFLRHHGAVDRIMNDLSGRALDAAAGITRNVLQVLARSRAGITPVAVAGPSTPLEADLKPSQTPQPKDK
UniProt Q96RT8, whole entry: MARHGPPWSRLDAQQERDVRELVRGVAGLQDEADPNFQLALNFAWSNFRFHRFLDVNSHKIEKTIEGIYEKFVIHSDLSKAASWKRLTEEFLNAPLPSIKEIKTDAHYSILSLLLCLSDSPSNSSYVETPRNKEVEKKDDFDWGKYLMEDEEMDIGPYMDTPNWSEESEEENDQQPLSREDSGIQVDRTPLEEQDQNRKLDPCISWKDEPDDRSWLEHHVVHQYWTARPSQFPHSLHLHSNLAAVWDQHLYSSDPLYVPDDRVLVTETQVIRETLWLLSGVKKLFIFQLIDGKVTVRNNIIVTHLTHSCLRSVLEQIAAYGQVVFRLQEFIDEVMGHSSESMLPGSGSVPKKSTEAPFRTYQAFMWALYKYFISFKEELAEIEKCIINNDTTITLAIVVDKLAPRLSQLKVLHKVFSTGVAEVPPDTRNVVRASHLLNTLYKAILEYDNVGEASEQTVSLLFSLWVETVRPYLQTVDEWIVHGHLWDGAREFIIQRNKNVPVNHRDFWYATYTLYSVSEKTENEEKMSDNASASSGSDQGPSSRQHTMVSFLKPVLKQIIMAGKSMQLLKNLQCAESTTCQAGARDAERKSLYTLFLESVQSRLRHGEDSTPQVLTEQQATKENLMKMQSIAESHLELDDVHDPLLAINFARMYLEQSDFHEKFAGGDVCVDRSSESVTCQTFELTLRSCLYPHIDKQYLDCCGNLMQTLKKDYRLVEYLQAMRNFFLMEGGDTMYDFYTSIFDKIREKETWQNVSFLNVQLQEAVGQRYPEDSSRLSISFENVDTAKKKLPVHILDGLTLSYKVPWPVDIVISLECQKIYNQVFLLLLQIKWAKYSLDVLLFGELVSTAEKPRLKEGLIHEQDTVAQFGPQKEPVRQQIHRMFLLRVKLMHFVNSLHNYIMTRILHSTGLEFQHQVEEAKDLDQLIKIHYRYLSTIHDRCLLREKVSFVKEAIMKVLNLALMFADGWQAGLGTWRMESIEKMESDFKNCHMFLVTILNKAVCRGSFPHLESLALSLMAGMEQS

Compound: Cc1nc(Nc2ncc(C(=O)Nc3c(C)cccc3Cl)s2)cc(N2CCN(CCO)CC2)n1 [dasatinib]
Assay: log2 fold change of tryptic peptide abundance, ligand vs vehicle (limited proteolysis) (log2 ratio); higher = more trypsin-susceptible (destabilized)
Details: ligand concentration: 5 uM; sample: K562 cleared lysate

Target | log2 fold change
UniProt Q96QE5 (peptide sequence: SINIVEHR, peptide start residue: 96) | 0.0821
PURB (peptide sequence: KYYLDLK, peptide start residue: 130) (UniProt Q96QR8) | -0.126
UniProt Q96HE9 (peptide sequence: DGPMQITVK, peptide start residue: 222) | 0.41
PHF12 (peptide sequence: ANGPHLYSSPTDSTDPR, peptide start residue: 547) (UniProt Q96QT6) | -0.728
UniProt Q96PU8 (peptide sequence: RSAELPDAVGPIVQLQEK, peptide start residue: 68) | -0.308
C5orf34 (peptide sequence: GKVVSVLPR, peptide start residue: 290) (UniProt Q96MH7) | -0.598
APIP (peptide sequence: QFYHLGWVTGTGGGISLK, peptide start residue: 34) (UniProt Q96GX9) | 0.281
FAHD2A (peptide sequence: RALAAQLPVLPR, peptide start residue: 82) (UniProt Q96GK7) | -0.11
CCDC115 (peptide sequence: VEEGWLSLAK, peptide start residue: 35) (UniProt Q96NT0) | 0.101
MAGEB10 (peptide sequence: SQFPVILSR, peptide start residue: 147) (UniProt Q96LZ2) | 0.238
PAGE5 (peptide sequence: IEDAPGDGPDVR, peptide start residue: 99) (UniProt Q96GU1) | 0.0715
UniProt Q96GS4 (peptide sequence: GAPGAEHEPSLSSR, peptide start residue: 96) | -0.187
ATAD5 (peptide sequence: FLHYFEGIHLDIPK, peptide start residue: 1820) (UniProt Q96QE3) | -1.25
CNDP2 (peptide sequence: TVFGVEPDLTR, peptide start residue: 403) (UniProt Q96KP4) | 0.059
UniProt Q96IK5 (peptide sequence: PALAQQAQGAR, peptide start residue: 14) | 0.0996
C7orf26 (peptide sequence: LVSMAVAVCR, peptide start residue: 117) (UniProt Q96N11) | 0.188
UniProt Q96PX1 (peptide sequence: YQANNCPICR, peptide start residue: 308) | -0.911
PRIMPOL (peptide sequence: DNIHVGNFLR, peptide start residue: 181) (UniProt Q96LW4) | -0.291
UniProt Q96M91 (peptide sequence: REAQEARR, peptide start residue: 215) | -3.08e-05
CHMP6 (peptide sequence: VTEQDKAILQLK, peptide start residue: 13) (UniProt Q96FZ7) | -0.417
C9orf85 (peptide sequence: LHDGVCQR, peptide start residue: 40) (UniProt Q96MD7) | 0.132

Target | log2 fold change
GFM1 (peptide sequence: DNSHPFVGLAFK, peptide start residue: 348) (UniProt Q96RP9) | 0.358
ALPK1 (peptide sequence: SASWSSDSGRPK, peptide start residue: 719) (UniProt Q96QP1) | 0.281
LIN37 (peptide sequence: LDEEAGKTPSDTHNKDCSIAATGK, peptide start residue: 40) (UniProt Q96GY3) | 0.282
IMP4 (peptide sequence: YLFPVPK, peptide start residue: 205) (UniProt Q96G21) | -0.319
MED8 (peptide sequence: TKPDPEVEEQEK, peptide start residue: 111) (UniProt Q96G25) | 0.194
UniProt Q96K30 (peptide sequence: YRPISHTPSYCDESLFGSR, peptide start residue: 100) | 0.04
UniProt Q96JN0 (peptide sequence: SQSEPSEQDGVLDLSTKK, peptide start residue: 72) | 0.319
PWWP2A (peptide sequence: NSVVAEKK, peptide start residue: 327) (UniProt Q96N64) | 0.638
UniProt Q96GY0 (peptide sequence: VSSSSSSLGNK, peptide start residue: 208) | 0.342
LINC00526 (peptide sequence: SAPCDLGASQR, peptide start residue: 47) (UniProt Q96FQ7) | -0.153
NUDCD1 (peptide sequence: KNEGLTWPELVIGDK, peptide start residue: 351) (UniProt Q96RS6) | -0.559
FMNL2 (peptide sequence: DDVHVCIMCLR, peptide start residue: 225) (UniProt Q96PY5) | 0.247
UniProt Q96HE7 (peptide sequence: FDGILTEGEGPRR, peptide start residue: 288) | -0.192
VPS39 (peptide sequence: QQQIHHIK, peptide start residue: 342) (UniProt Q96JC1) | 0.943
UniProt Q96FB5 (peptide sequence: KLSDFTGCTQVVDVGSGQGHLSR, peptide start residue: 147) | -0.159
UniProt Q96GE5 (peptide sequence: AFSYHNSLQTHER, peptide start residue: 149) | -1.14
UniProt Q96MP5 (peptide sequence: VASPGGDTTGK, peptide start residue: 107) | -0.0279
DEPDC7 (peptide sequence: DAGYIYCQR, peptide start residue: 446) (UniProt Q96QD5) | 0.202
DNAJC1 (peptide sequence: LLVELVQK, peptide start residue: 541) (UniProt Q96KC8) | 0.113
HEXIM2 (peptide sequence: DFSETYER, peptide start residue: 266) (UniProt Q96MH2) | 0.101
SENP8 (peptide sequence: QVAEKLEAFLGR, peptide start residue: 131) (UniProt Q96LD8) | -0.28

Another view of some results above.
Target	log2 fold change
UniProt Q96GE5 (peptide sequence: AFSYHNSLQTHER, peptide start residue: 149)	-1.14
UniProt Q96MP5 (peptide sequence: VASPGGDTTGK, peptide start residue: 107)	-0.0279
DEPDC7 (peptide sequence: DAGYIYCQR, peptide start residue: 446) (UniProt Q96QD5)	0.202
DNAJC1 (peptide sequence: LLVELVQK, peptide start residue: 541) (UniProt Q96KC8)	0.113
HEXIM2 (peptide sequence: DFSETYER, peptide start residue: 266) (UniProt Q96MH2)	0.101

(list continues)

Target | log2 fold change
UniProt Q96FZ2 (peptide sequence: ACAYQDR, peptide start residue: 17) | 0.281
UniProt Q96NC0 (peptide sequence: RFEVNKK, peptide start residue: 125) | 0.196
NEK1 (peptide sequence: YGIPLAYK, peptide start residue: 315) (UniProt Q96PY6) | 0.502
SDSL (peptide sequence: LQGEGAEVQLTGK, peptide start residue: 106) (UniProt Q96GA7) | 0.143
UniProt Q96JG6 (peptide sequence: SEVLQESIRK, peptide start residue: 434) | 0.806
VPS35 (peptide sequence: NYLLQCTR, peptide start residue: 151) (UniProt Q96QK1) | -0.317
TCEANC2 (peptide sequence: ETFHLCSR, peptide start residue: 158) (UniProt Q96MN5) | -0.43
UniProt Q96LW9 (peptide sequence: GNNFSGQEASR, peptide start residue: 29) | -0.412
FUBP3 (peptide sequence: AEGFVDALHR, peptide start residue: 16) (UniProt Q96I24) | -0.161
MISP3 (peptide sequence: EREQELQR, peptide start residue: 163) (UniProt Q96FF7) | -0.0718
REEP6 (peptide sequence: QRVEHFLEQR, peptide start residue: 6) (UniProt Q96HR9) | 0.0589
RILP (peptide sequence: IQSFFGLWYR, peptide start residue: 340) (UniProt Q96NA2) | 0.877
UniProt Q96K62 (peptide sequence: HLLAARPPGHPGAAHSR, peptide start residue: 155) | -0.62
MASTL (peptide sequence: NFELVDSSPCK, peptide start residue: 446) (UniProt Q96GX5) | 0.778
MRPL48 (peptide sequence: EHTEEDFK, peptide start residue: 188) (UniProt Q96GC5) | 0.215
SEC22A (peptide sequence: INLSDMQTEIK, peptide start residue: 136) (UniProt Q96IW7) | -0.202
UniProt Q96RT6 (peptide sequence: EATEAQSLEATCEKLNR, peptide start residue: 728) | 0.232
UniProt Q96Q05 (peptide sequence: RFQGSTLPAEAANR, peptide start residue: 270) | 0.0725
CAMKK2 (peptide sequence: AAPQDELGGR, peptide start residue: 14) (UniProt Q96RR4) | 0.369
TUBGCP5 (peptide sequence: KLDPCISWKDEPDDR, peptide start residue: 199) (UniProt Q96RT8) | -0.258
EXOC2 (peptide sequence: LEICALR, peptide start residue: 856) (UniProt Q96KP1) | -0.263
